Data: the supplement of paper PMC6411743
± gives the standard deviation of the averaged measurements. The entries are a selection whose mix differs from that of the whole data set. Most entries show no effect beyond the scatter of the controls.

Chains of the proteins cited; added tags and fusions are not shown. Lines headed by an entry give the natural chain unless they say otherwise; changes in a name come on top.
UniProt Q5JPI3: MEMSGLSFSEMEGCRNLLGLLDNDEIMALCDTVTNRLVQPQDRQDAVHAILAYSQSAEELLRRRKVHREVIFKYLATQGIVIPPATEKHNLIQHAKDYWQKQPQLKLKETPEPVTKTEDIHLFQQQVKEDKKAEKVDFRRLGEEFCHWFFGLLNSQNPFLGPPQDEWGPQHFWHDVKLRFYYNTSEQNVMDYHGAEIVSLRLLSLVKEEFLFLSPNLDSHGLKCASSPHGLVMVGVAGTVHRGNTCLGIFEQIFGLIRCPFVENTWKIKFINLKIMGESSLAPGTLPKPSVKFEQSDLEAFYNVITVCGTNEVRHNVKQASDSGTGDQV
UniProt Q68D10: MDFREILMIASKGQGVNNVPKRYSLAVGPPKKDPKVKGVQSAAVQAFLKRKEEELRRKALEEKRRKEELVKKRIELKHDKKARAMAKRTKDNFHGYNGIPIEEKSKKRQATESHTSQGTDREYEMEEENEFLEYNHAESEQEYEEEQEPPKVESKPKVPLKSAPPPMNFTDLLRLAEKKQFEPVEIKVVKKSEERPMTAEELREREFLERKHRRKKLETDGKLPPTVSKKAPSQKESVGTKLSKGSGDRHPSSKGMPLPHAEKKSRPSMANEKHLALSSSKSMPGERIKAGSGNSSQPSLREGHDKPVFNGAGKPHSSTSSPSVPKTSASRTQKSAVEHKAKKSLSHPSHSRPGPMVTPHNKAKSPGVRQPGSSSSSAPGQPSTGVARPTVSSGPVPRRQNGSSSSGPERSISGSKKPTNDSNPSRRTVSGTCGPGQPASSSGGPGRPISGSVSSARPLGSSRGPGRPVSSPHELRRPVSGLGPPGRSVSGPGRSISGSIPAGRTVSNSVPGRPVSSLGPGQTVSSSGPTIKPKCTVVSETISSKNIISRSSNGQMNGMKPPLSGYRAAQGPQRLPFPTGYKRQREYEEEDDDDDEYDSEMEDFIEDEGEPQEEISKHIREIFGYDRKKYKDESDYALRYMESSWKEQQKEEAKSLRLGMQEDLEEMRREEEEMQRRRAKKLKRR
UniProt Q5M775: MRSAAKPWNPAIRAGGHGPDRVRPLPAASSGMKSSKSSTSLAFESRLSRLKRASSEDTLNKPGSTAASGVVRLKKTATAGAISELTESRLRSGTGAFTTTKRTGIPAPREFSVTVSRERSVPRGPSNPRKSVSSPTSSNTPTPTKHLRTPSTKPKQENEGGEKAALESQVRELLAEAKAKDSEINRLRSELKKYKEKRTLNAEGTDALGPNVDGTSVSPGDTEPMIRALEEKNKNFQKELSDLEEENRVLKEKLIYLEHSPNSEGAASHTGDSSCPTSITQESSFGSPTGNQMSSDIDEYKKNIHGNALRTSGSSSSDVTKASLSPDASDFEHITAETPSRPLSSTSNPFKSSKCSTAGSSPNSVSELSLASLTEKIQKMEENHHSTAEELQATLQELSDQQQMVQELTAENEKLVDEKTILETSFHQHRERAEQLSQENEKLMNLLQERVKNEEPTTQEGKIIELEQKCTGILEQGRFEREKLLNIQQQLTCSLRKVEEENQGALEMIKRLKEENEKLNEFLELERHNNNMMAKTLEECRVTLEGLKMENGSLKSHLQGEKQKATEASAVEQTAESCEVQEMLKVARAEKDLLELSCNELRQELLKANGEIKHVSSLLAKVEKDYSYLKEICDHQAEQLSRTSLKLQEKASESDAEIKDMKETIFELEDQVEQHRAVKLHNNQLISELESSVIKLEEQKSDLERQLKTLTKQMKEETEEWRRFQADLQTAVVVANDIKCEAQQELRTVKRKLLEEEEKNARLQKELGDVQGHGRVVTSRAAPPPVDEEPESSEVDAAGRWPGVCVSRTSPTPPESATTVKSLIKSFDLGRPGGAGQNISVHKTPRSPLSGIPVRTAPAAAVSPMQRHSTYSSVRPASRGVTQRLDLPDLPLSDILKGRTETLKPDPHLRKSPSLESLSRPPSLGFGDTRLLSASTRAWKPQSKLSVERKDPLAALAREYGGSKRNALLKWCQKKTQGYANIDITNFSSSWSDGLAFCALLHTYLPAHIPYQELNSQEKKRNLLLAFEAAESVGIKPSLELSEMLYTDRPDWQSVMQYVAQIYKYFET
UniProt Q5TA45, whole entry: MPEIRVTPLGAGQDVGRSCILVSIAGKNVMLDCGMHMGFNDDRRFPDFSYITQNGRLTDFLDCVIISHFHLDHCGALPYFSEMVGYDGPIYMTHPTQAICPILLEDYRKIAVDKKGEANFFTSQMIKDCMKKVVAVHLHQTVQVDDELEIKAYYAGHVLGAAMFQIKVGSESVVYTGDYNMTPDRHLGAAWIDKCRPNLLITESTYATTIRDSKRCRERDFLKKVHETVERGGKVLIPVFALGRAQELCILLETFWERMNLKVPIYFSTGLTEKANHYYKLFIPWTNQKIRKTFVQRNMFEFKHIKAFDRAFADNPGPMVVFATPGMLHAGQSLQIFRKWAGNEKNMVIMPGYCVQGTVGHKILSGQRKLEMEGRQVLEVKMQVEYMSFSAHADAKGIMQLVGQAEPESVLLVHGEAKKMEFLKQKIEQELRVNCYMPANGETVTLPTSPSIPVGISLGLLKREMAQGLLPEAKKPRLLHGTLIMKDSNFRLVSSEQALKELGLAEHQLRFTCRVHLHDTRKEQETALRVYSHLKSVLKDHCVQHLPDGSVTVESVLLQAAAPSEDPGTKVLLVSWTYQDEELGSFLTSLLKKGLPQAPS
UniProt Q5T6V5: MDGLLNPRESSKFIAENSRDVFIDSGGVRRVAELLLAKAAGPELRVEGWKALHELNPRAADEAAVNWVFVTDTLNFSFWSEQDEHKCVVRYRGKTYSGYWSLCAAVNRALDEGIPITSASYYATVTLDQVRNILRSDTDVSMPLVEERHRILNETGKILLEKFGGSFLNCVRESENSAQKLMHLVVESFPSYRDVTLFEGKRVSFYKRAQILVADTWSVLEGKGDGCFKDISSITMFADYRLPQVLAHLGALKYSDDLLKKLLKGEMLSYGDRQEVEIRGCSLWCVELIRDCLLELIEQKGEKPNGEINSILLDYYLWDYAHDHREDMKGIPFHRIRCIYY
UniProt Q6NXT1: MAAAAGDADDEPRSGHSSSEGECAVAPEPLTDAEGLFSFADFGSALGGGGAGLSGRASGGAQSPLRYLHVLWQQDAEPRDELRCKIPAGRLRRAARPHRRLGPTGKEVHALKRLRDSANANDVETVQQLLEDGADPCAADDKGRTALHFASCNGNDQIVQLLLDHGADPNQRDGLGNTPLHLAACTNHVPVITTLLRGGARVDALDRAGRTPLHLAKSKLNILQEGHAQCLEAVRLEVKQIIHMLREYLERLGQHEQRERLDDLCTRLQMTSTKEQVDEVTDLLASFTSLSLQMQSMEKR
UniProt Q6PD74: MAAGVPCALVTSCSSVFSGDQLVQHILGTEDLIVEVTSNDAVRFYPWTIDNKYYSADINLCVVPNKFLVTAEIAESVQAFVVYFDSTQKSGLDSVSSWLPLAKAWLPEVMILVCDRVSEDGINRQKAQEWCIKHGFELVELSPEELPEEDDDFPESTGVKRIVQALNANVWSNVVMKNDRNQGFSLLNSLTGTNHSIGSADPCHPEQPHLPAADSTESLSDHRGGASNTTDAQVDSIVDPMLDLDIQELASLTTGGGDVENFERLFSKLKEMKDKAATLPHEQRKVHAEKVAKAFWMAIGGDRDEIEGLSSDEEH
UniProt Q6P4Q7: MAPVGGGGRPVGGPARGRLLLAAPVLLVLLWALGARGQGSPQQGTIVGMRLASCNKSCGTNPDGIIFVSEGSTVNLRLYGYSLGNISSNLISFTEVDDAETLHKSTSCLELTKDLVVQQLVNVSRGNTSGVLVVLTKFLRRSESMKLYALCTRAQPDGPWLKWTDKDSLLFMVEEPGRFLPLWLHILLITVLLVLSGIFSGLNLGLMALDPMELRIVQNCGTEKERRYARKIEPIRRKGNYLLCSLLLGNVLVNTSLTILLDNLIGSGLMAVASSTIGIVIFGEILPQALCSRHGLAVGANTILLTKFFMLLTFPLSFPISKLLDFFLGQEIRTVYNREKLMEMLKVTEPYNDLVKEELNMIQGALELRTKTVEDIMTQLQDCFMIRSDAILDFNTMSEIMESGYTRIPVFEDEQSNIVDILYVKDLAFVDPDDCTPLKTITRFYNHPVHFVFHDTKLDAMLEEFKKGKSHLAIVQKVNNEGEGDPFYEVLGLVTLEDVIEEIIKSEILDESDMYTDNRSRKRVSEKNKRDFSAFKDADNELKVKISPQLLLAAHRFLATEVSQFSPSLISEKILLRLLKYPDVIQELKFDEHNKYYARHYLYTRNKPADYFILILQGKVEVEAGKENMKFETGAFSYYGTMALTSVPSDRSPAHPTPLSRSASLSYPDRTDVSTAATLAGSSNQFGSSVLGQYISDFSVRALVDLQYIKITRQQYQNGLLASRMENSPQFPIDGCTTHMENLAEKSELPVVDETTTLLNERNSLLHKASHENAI
UniProt Q5T2D3, whole entry: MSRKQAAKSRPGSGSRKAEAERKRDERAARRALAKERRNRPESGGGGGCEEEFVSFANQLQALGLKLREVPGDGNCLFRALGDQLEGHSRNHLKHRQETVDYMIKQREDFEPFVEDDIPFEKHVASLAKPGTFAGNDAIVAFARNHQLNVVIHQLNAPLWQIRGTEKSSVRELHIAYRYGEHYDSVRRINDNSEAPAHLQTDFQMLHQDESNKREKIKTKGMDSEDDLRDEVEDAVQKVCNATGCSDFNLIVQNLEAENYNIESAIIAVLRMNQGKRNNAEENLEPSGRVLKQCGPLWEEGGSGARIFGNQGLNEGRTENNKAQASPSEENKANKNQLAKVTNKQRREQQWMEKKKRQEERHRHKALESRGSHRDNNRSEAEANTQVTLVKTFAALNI
UniProt Q6FIF0: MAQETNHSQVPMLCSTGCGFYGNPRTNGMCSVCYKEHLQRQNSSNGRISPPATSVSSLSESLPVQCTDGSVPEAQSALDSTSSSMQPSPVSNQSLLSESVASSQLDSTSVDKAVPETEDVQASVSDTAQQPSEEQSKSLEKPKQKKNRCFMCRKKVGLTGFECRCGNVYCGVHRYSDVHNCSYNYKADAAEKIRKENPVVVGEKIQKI
UniProt Q659C4: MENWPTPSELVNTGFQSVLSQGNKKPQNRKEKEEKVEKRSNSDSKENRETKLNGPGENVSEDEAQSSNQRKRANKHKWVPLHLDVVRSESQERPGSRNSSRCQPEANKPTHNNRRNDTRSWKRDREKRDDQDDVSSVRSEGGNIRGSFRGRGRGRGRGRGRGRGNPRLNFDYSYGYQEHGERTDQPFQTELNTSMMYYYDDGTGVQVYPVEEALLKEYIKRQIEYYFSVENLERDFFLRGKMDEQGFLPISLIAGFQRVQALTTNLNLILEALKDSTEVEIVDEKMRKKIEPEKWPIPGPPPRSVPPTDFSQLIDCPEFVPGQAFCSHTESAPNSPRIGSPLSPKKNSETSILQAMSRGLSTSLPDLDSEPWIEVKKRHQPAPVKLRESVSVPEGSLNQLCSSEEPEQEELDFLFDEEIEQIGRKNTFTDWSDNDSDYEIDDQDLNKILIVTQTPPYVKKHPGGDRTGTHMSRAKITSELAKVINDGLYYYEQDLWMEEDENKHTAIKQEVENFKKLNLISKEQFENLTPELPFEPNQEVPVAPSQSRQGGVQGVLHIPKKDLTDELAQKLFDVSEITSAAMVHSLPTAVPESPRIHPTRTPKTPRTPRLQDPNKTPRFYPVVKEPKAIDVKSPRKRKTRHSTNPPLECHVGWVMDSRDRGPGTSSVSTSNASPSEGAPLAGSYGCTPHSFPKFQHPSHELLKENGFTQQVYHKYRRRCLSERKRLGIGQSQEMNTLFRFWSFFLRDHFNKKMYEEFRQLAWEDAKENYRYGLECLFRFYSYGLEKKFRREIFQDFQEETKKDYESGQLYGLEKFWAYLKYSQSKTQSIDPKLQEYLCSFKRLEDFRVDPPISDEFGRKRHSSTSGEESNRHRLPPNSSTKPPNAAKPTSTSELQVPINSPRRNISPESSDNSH
UniProt Q5BKY9: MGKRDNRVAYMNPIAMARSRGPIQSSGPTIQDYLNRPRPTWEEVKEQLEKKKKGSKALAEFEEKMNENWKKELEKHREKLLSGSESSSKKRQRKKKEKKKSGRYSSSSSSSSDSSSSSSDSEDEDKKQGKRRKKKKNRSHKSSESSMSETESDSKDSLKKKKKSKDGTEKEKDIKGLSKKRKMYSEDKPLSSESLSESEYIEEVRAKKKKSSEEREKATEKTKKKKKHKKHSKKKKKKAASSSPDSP
UniProt Q6JBY9, whole entry: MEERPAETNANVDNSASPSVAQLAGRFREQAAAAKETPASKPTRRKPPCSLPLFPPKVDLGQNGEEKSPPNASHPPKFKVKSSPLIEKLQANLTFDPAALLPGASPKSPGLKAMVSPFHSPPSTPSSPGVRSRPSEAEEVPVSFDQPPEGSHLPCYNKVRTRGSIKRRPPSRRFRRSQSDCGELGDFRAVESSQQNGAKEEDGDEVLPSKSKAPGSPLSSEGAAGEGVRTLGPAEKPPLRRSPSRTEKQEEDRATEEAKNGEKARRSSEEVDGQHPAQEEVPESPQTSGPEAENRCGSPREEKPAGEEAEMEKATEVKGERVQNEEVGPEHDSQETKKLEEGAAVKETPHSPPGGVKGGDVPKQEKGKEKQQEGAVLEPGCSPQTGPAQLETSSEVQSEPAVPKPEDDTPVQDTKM

Compound: Nc1ncnc2c1ncn2[C@@H]1O[C@H](COP(=O)(O)OP(=O)(O)OP(=O)(O)O)[C@@H](O)[C@H]1O [adenosine triphosphate]
Test: NP40-soluble protein abundance relative to vehicle (solubility fold change) (ratio); higher = more soluble protein in presence of ATP
How it was run: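 In three independent experiments, Jurkat crude lysate made by Dounce homogenisation was treated for 10 min at room temperature and then 3 min at 37 °C with eight concentrations ranging from 0.1 to 10 mM. It was then solubilised with 0.8% NP40 plus benzonase for 60 min at 4 °C and ultracentrifuged. The supernatant was TMT-labelled for LC-MS/MS, and each value is the fold change against the detergent-processed vehicle for the same replicate, using vsn-normalised intensities.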

Target | NP40-soluble protein abundance (concentration: 0.1mM) | NP40-soluble protein abundance (concentration: 0.5mM)
UniProt Q68CQ4 | 1.05 ± 0.05 | 1.07 ± 0.075
UniProt Q66PJ3 and related entries | 1.03 ± 0.046 | 1.09 ± 0.048
MANEA (UniProt Q5SRI9) | 1.033 ± 0.0048 | 0.959 ± 0.095
UniProt Q5JPI3 and related entries | 1.01 ± 0.16 | 0.9 ± 0.14
EAPP (UniProt Q56P03) | 0.999 ± 0.057 | 0.99 ± 0.03
UniProt Q68D10 and related entries | 0.978 ± 0.038 | 0.99 ± 0.029
UniProt Q53F19 | 0.993 ± 0.016 | 1.01 ± 0.05
UniProt Q6N069 | 1.07 ± 0.09 | 1.05 ± 0.052
UniProt Q5XUX1 and related entries | 1.08 ± 0.042 | 1.01 ± 0.031
CRTC2 (UniProt Q53ET0) | 0.982 ± 0.043 | 1.06 ± 0.046
UniProt Q5M775 and related entries | 0.956 ± 0.019 | 0.933 ± 0.044
UniProt Q5TA45 and related entries | 1.02 ± 0.032 | 1.06 ± 0.043
UniProt Q5FBB7 and related entries | 0.96 ± 0.041 | 0.9308 ± 0.007
BEND3 (UniProt Q5T5X7) | 1 ± 0.069 | 0.979 ± 0.034
UniProt Q6P9B6 | 1.01 ± 0.055 | 1.05 ± 0.06
C9orf64 (UniProt Q5T6V5) | 1.023 ± 0.0066 | 0.999 ± 0.018
UniProt Q6ICL3 and related entries | 1.1 ± 0.19 | 1.04 ± 0.15
ANKRD54 (UniProt Q6NXT1) | 0.92 ± 0.1 | 0.901 ± 0.052
UniProt Q6P1N0 and related entries | 1.01 ± 0.026 | 1.01 ± 0.037
DHX57 (UniProt Q6P158) | 1.07 ± 0.045 | 1.05 ± 0.09
UniProt Q6PD74 and related entries | 0.985 ± 0.045 | 0.99 ± 0.072
LACTB2 (UniProt Q53H82) | 1.03 ± 0.018 | 1.04 ± 0.048

Target | NP40-soluble protein abundance (concentration: 0.1mM) | NP40-soluble protein abundance (concentration: 0.5mM)
PRPF38B (UniProt Q5VTL8) | 1.1 ± 0.018 | 1.25 ± 0.1
CNNM4 (UniProt Q6P4Q7) | 1.02 ± 0.044 | 1.03 ± 0.034
PITRM1 (UniProt Q5JRX3) | 1.03 ± 0.056 | 1.04 ± 0.069
UniProt Q5T2D3 | 1.1079 ± 0.00099 | 1.24 ± 0.24
UniProt Q6JQN1 and related entries | 1 ± 0.1 | 0.977 ± 0.079
UniProt Q5MNZ6 | 1.07 ± 0.12 | 1 ± 0.075
INTS5 (UniProt Q6P9B9) | 1.12 ± 0.15 | 1.1 ± 0.16
UniProt Q5TC82 and related entries | 1.06 ± 0.061 | 1.04 ± 0.051
UniProt Q6GQQ9 and related entries | 1.09 ± 0.032 | 1.05 ± 0.046
UniProt Q6P2P2 | 1.07 ± 0.077 | 1.05 ± 0.071
XAF1 (UniProt Q6GPH4) | 1.02 ± 0.017 | 1.02 ± 0.035
UniProt Q6FIF0 and related entries | 0.957 ± 0.061 | 0.96 ± 0.08
TBC1D10B (UniProt Q4KMP7) | 1.01 ± 0.028 | 1.02 ± 0.029
UniProt Q504Q3 and related entries | 1.05 ± 0.077 | 1.05 ± 0.018
LARP2 (UniProt Q659C4) | 1.07 ± 0.32 | 1.04 ± 0.28
UniProt Q5T8I3 and related entries | 1 ± 0.064 | 1.01 ± 0.075
HP1BP3 (UniProt Q5SSJ5) | 0.974 ± 0.018 | 1.03 ± 0.048
RNF123 (UniProt Q5XPI4) | 0.985 ± 0.038 | 0.971 ± 0.028
UniProt Q5BKY9 and related entries | 1.03 ± 0.057 | 1.09 ± 0.065
UniProt Q5VW32 | 0.992 ± 0.043 | 1.02 ± 0.052
ARHGAP15 (UniProt Q53QZ3) | 1.04 ± 0.056 | 1.11 ± 0.051
RCSD1 (UniProt Q6JBY9) | 0.888 ± 0.06 | 0.816 ± 0.069

Given with tabs: entries from further up
Target	NP40-soluble protein abundance (concentration: 0.1mM)	NP40-soluble protein abundance (concentration: 0.5mM)
PRPF38B (UniProt Q5VTL8)	1.1 ± 0.018	1.25 ± 0.1
CNNM4 (UniProt Q6P4Q7)	1.02 ± 0.044	1.03 ± 0.034
